# The other results are listed elsewhere or left out.
# B1: PX9961K-bvu-480-28-480 (Bacteroides vulgatus) (protein)
# chain: NKIPTTMAFRTVTDVDNAVNGLYDLMSGSGYYGAAMFAYGDMKGDDMQSSEESGVCNTCYMFNHRPNSLNAGSLWGRPFYILREAWNILNAIAEGKIESGDEKKLNALKGETMAVIALCQFDLTRCFGYPYTKDKGASLGAPLIDHLVGTYENPPRSTVAQAYDFIIETLEEAVTLMSEEKNNGRMNKYAARALLARIYLYHDDNRKAFDLADQLIKDADTSGSYALYPHEKYVAAWSVEAKFGSESFFEIANSVDDTPGRDSWGYLLNWYGYQKGFVTQKYAEQMLADPGDVRGHLLEENKYAGKTVWWLYKLRGTDLKTAPLECNNVVLRLSEVYLIAAEAGCKLGGDAAVQGLGYLNEIVKRGNPDNEVTMADYTLDRVLDERSKELVGEGHRFFDLLRNGKTIVRKGGYHLPSVDEEVDWDFYKCVLPIPEDQFIFSPEMEQNPGYPKN
# Legend:
# Test in all cases: glycan array binding signal (z-score within array); higher = stronger binding
# Conditions in all cases: glycan notation: IUPAC condensed, linker removed
# GalNAc(b1-3)Gal = molecular target: GalNAc(b1-3)Gal
# Outline: (§1)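 The binding signal is a Z-score computed within each array and averaged over linkers. Arrays of the same protein sequence at different concentrations or buffers were also averaged together. Data originate from 3228 arrays in the Consortium for Functional Glycomics database, kept only where the protein sequence was available.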
# [1] = molecular target: GalNAc(b1-3)Gal(a1-4)Gal(b1-4)GlcNAc
# Outline: as §1
# [2] = molecular target: GalNAc(b1-3)Gal(a1-4)Gal(b1-4)GlcNAc(b1-3)Gal(b1-4)Glc
# Outline: as §1
# [3] = molecular target: GalNAc(b1-3)Gal(a1-6)Gal(b1-4)Glc
# Outline: as §1
# GalNAc(b1-3)GalNAc = molecular target: GalNAc(b1-3)GalNAc
# Outline: as §1
# GalNAc(b1-3)GlcNAc = molecular target: GalNAc(b1-3)GlcNAc
# Outline: as §1
# GalNAc(b1-4)Gal(b1-4)Glc = molecular target: GalNAc(b1-4)Gal(b1-4)Glc
# Outline: as §1
# GalNAc(b1-4)GlcNAc = molecular target: GalNAc(b1-4)GlcNAc
# Outline: as §1
# [4] = molecular target: GalNAc(b1-4)GlcNAc(b1-2)Man
# Outline: as §1
# [5] = molecular target: GalNAc(b1-4)GlcNAc(b1-2)Man(a1-3)[GalNAc(b1-4)GlcNAc(b1-2)Man(a1-6)]Man(b1-4)GlcNAc(b1-4)GlcNAc
# Outline: as §1
# [6] = molecular target: GalNAc(b1-4)GlcNAc(b1-3)GalNAc(b1-4)GlcNAc
# Outline: as §1
# GalNAc(b1-4)GlcNAc6S = molecular target: GalNAc(b1-4)GlcNAc6S
# Outline: as §1
# GalNAc(b1-6)GalNAc = molecular target: GalNAc(b1-6)GalNAc
# Outline: as §1
# GalNAc3S(b1-4)GlcNAc = molecular target: GalNAc3S(b1-4)GlcNAc
# Outline: as §1
# GalNAc3S(b1-4)GlcNAc3S = molecular target: GalNAc3S(b1-4)GlcNAc3S
# Outline: as §1
# [7] = molecular target: GalNAc3S(b1-4)[Fuc(a1-3)]GlcNAc
# Outline: as §1
# GalNAc4S6S(b1-4)GlcNAc = molecular target: GalNAc4S6S(b1-4)GlcNAc
# Outline: as §1
# GalNAc6S(b1-4)GlcNAc = molecular target: GalNAc6S(b1-4)GlcNAc
# Outline: as §1
# Glc(a1-4)Glc = molecular target: Glc(a1-4)Glc
# Outline: as §1
# [8] = molecular target: Glc(a1-4)Glc(a1-4)Glc(a1-4)Glc
# Outline: as §1
# Glc(a1-6)Glc(a1-6)Glc = molecular target: Glc(a1-6)Glc(a1-6)Glc
# Outline: as §1
# [9] = molecular target: Glc(a1-6)Glc(a1-6)Glc(a1-6)Glc
# Outline: as §1
# Glc(b1-4)Glc = molecular target: Glc(b1-4)Glc
# Outline: as §1
# Glc(b1-6)Glc = molecular target: Glc(b1-6)Glc
# Outline: as §1
# GlcA(b1-3)Gal = molecular target: GlcA(b1-3)Gal
# Outline: as §1
# GlcA(b1-3)GlcNAc = molecular target: GlcA(b1-3)GlcNAc
# Outline: as §1
# GlcA(b1-6)Gal = molecular target: GlcA(b1-6)Gal
# Outline: as §1
# [10] = molecular target: GlcA3S(b1-3)Gal(b1-4)GlcNAc(b1-2)Man
# Outline: as §1
# [11] = molecular target: GlcA3S(b1-3)Gal(b1-4)GlcNAc(b1-3)Gal(b1-4)Glc
# Outline: as §1
# [12] = molecular target: GlcNAc(a1-3)Gal(b1-4)GlcNAc
# Outline: as §1
# [13] = molecular target: GlcNAc(a1-4)Gal(b1-3)GlcNAc
# Outline: as §1
# [14] = molecular target: GlcNAc(a1-4)Gal(b1-4)GalNAc
# Outline: as §1
# [15] = molecular target: GlcNAc(a1-4)Gal(b1-4)GlcNAc
# Outline: as §1
# [16] = molecular target: GlcNAc(a1-4)Gal(b1-4)GlcNAc(b1-3)Gal(b1-4)Glc
# Outline: as §1
# [17] = molecular target: GlcNAc(a1-4)Gal(b1-4)GlcNAc(b1-3)Gal(b1-4)GlcNAc
# Outline: as §1
# [18] = molecular target: GlcNAc(a1-4)Gal(b1-4)GlcNAc(b1-3)Gal(b1-4)GlcNAc(b1-3)Gal(b1-4)GlcNAc
# Outline: as §1
# [19] = molecular target: GlcNAc(a1-4)Gal(b1-4)GlcNAc(b1-3)Gal(b1-4)[Fuc(a1-3)]GlcNAc(b1-3)Gal(b1-4)[Fuc(a1-3)]GlcNAc
# Outline: as §1
# [20] = molecular target: GlcNAc(a1-6)Gal(b1-4)GlcNAc
# Outline: as §1
binder,measurement,setting,value
B1,glycan array binding signal (z-score),GalNAc(b1-3)Gal,-0.227
same,glycan array binding signal (z-score),[1],-0.475
same,glycan array binding signal (z-score),[2],-0.343
same,glycan array binding signal (z-score),[3],0.677
same,glycan array binding signal (z-score),GalNAc(b1-3)GalNAc,0.373
same,glycan array binding signal (z-score),GalNAc(b1-3)GlcNAc,0.085
same,glycan array binding signal (z-score),GalNAc(b1-4)Gal(b1-4)Glc,0.362
same,glycan array binding signal (z-score),GalNAc(b1-4)GlcNAc,0.72
same,glycan array binding signal (z-score),[4],0.581
same,glycan array binding signal (z-score),[5],-0.582
same,glycan array binding signal (z-score),[6],-0.336
same,glycan array binding signal (z-score),GalNAc(b1-4)GlcNAc6S,-0.639
same,glycan array binding signal (z-score),GalNAc(b1-6)GalNAc,-0.225
same,glycan array binding signal (z-score),GalNAc3S(b1-4)GlcNAc,-0.27
same,glycan array binding signal (z-score),GalNAc3S(b1-4)GlcNAc3S,0.498
same,glycan array binding signal (z-score),[7],-0.094
same,glycan array binding signal (z-score),GalNAc4S6S(b1-4)GlcNAc,-0.408
same,glycan array binding signal (z-score),GalNAc6S(b1-4)GlcNAc,-0.802
same,glycan array binding signal (z-score),Glc(a1-4)Glc,-0.283
same,glycan array binding signal (z-score),[8],-0.305
same,glycan array binding signal (z-score),Glc(a1-6)Glc(a1-6)Glc,-0.638
same,glycan array binding signal (z-score),[9],-0.777
same,glycan array binding signal (z-score),Glc(b1-4)Glc,-0.946
same,glycan array binding signal (z-score),Glc(b1-6)Glc,0.029
same,glycan array binding signal (z-score),GlcA(b1-3)Gal,-0.115
same,glycan array binding signal (z-score),GlcA(b1-3)GlcNAc,0.396
same,glycan array binding signal (z-score),GlcA(b1-6)Gal,0.055
same,glycan array binding signal (z-score),[10],0.105
same,glycan array binding signal (z-score),[11],-0.255
same,glycan array binding signal (z-score),[12],0.21
same,glycan array binding signal (z-score),[13],-1.15
same,glycan array binding signal (z-score),[14],0.018
same,glycan array binding signal (z-score),[15],-0.571
same,glycan array binding signal (z-score),[16],-0.35
same,glycan array binding signal (z-score),[17],-0.127
same,glycan array binding signal (z-score),[18],-0.73
same,glycan array binding signal (z-score),[19],-0.338
same,glycan array binding signal (z-score),[20],-0.068

# 3 entries picked at random from those above:
binder,measurement,setting,value
B1,glycan array binding signal (z-score),GalNAc(b1-4)Gal(b1-4)Glc,0.362
same,glycan array binding signal (z-score),Glc(a1-6)Glc(a1-6)Glc,-0.638
same,glycan array binding signal (z-score),[4],0.581
